PubChem BioAssay AID652243, Drosophila RNAi Screening Center | 2013

Purpose: 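Knock-downs that decrease or increase androgen receptor reporter signal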 (primary screen)
Cells: Drosophila S2R+ cells
Knock-down reagent: long dsRNA against Drosophila genes
Time to read-out: 72 h (48 h, then 24 h hormone)
Challenge: synthetic androgen R1881 at 10 nM for 24 h
Detection: 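Firefly light from an androgen-responsive reporter and Renilla control light per well, raw and unnormalised, for each of two replicates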
Scale: firefly reporter light: higher = more light from androgen-responsive reporter; Renilla control light: higher = more constitutive control signal (cell number, transfection)
Active means: 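Hit when the log firefly-to-Renilla ratio dropped or increased by a fixed fold versus the mean of GFP or LacZ controls across duplicate plates; lowering cut given as 1.5 and as 3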
Calls: active = hit: reporter lowered or raised; inactive = no hit
The deposit covers about 24,000 reagents; below is an unselected part of those with a known target gene and a result. Over the whole deposit, 246 (1%) were called active. 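Plates not normalised; calls are printed but the firefly/Renilla ratio behind them is not deposited; fold cut for lowering reported inconsistently.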 The raw values are shown without normalisation. A number with no mark means an inactive call. Reagent sequences are not shown. Not stated in the record: the amount of reagent.

target gene | amplicon | firefly reporter light, replicate 1 | firefly reporter light, replicate 2 | Renilla control light, replicate 1 | Renilla control light, replicate 2
CR46300 (pseudo) | DRSC37917 | 5.64e5 | 7.37e5 | 1.19e6 | 1.46e6
CG5849 | DRSC15893 | 3.43e5 | 3.55e5 | 3.12e6 | 3.42e6
Or65a (Odorant receptor 65a) | DRSC08808 | 1.64e5 | 1.96e5 | 4.93e5 | 4.52e5
ppk24 (pickpocket 24) | DRSC15093 | 2.22e5 | 2.65e5 | 2.68e6 | 2.53e6
sPLA2 (secretory Phospholipase A2) | DRSC06041 | 4.22e5 | 3.10e5 | 3.29e6 | 2.20e6
sPLA2 (secretory Phospholipase A2) | DRSC26194 | 4.87e5 | 4.71e5 | 6.18e5 | 3.36e5
CG13082 | DRSC02186 | 75480 | 92474 | 1.26e6 | 1.52e6
CG13082 | DRSC26734 | 3.68e5 | 4.26e5 | 5.08e5 | 5.48e5
CG34232 | DRSC36562 | 1.02e6 | 9.10e5 | 1.28e6 | 1.43e6
EbpIII (Ejaculatory bulb protein III) | DRSC04638 | 5.54e5 | 6.76e5 | 1.54e6 | 1.73e6
Act42A (Actin 42A) | DRSC04835 | 3.10e5 | 2.28e5 | 1.33e6 | 1.07e6
Act42A (Actin 42A) | DRSC25061 | 1.35e6 | 1.26e6 | 8.23e5 | 1.06e6
CG43736 | DRSC18370 | 7.40e5 | 7.81e5 | 1.54e6 | 2.17e6
CG43736 | DRSC18371 | 3.51e5 | 3.67e5 | 2.37e6 | 2.29e6
CG43736 | DRSC27351 | 3.33e5 | 3.34e5 | 6.86e5 | 6.26e5
CG43736 | DRSC39100 | 6.18e5 | 6.05e5 | 1.17e6 | 1.24e6
CG6511 | DRSC10656 | 1.08e5 | 1.06e5 | 1.90e6 | 1.44e6
CG14369 | DRSC14831 | 1.81e5 | 1.75e5 | 3.14e6 | 2.84e6
CG14369 | DRSC25713 | 7.33e5 | 6.74e5 | 1.44e6 | 1.68e6
c12.2 | DRSC18751 | 2.16e5 | 2.29e5 | 2.75e6 | 2.78e6
c12.2 | DRSC26390 | 3.10e5 | 2.44e5 | 7.82e5 | 9.13e5
Ssk (Snakeskin) | DRSC10756 | 83790 | 71014 | 5.30e5 | 3.83e5
Dhrs4 (Dehydrogenase/reductase 4) | DRSC09773 | 8.61e5 | 9.33e5 | 7.63e5 | 1.09e6
CG9044 | DRSC03130 | 7.92e5 | 7.77e5 | 1.44e6 | 1.46e6

Reformatted: 2 of the entries above
{"target gene":"Act42A (Actin 42A)","amplicon":"DRSC04835","firefly reporter light, replicate 1":3.10e5,"firefly reporter light, replicate 2":2.28e5,"Renilla control light, replicate 1":1.33e6,"Renilla control light, replicate 2":1.07e6}
{"target gene":"Act42A (Actin 42A)","amplicon":"DRSC25061","firefly reporter light, replicate 1":1.35e6,"firefly reporter light, replicate 2":1.26e6,"Renilla control light, replicate 1":8.23e5,"Renilla control light, replicate 2":1.06e6}
